Experimental data published in PubChem BioAssay AID328 (DTP/NCI, 2004).
The list shows only some results of the screen, not a fair sample: it gathers tests that were run many times, whatever their T/C, doses with no T/C, and many T/C values between a quarter and a half above the control. Further doses and runs are listed elsewhere. T/C: endpoint of the treated group in % of that of the vehicle group. Some entries give survivors of the animals treated and no T/C: the source files T/C as zero there, which appears to mark a toxic dose or a test without result, not a measured value. Some doses without a T/C left all or most animals alive at the check, yet need not have been tolerated: survival well below the control is almost never listed, so the zero probably covers shortened survival too. Counts of survivors are from the toxicity check (mostly the fifth day) where no day follows; animals may have died later. Schedule codes are those of the source, read here as Q, the interval in days (D) or hours (H), X, the number of doses. Some entries hold several experiments; their values stand side by side, smallest first. For survival time, the PubChem record calls one and a half times the control and up active, and a quarter to a half above the control has no call in these data; cut-offs in other NCI protocols can differ. Some T/C values are followed by the survivors on the day toxicity was checked, most often the fifth; where none is given, no animal had died by that day.

System: BDF1 mice, P388 leukemia ip, median survival T/C
Test: NCI In Vivo Anticancer Drug Screen. Data for tumor model P388 Leukemia (intraperitoneal) in B6D2F1 (BDF1) mice
Details: T/C endpoint: median survival time, higher T/C = longer survival
Method in brief: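 Mice carrying the transplantable tumour receive compound or vehicle. Survival is followed in each arm, and the treated measure is divided by the vehicle measure.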

[1] = dose: 200.0 mg/kg/injection, schedule: Q01DX009 (ip), vehicle: Klucel (hydroxypropylcellulose) (HPC)
[2] = dose: 50.0 mg/kg/injection, schedule: Q01DX009 (ip), vehicle: Klucel (hydroxypropylcellulose) (HPC)
[3] = dose: 21.0 mg/kg/injection, schedule: Q04DX003 (ip), vehicle: saline
[4] = dose: 400.0 mg/kg/injection, schedule: Q04DX003 (ip), vehicle: Klucel (hydroxypropylcellulose) (HPC)

Q: Which survivor count (dose: 50.0 mg/kg/injection, schedule: Q04DX003 (ip), vehicle: saline with Tween-80) does the source give for `Cc1cc(N(CCOS(C)(=O)=O)CCOS(C)(=O)=O)ccc1C=O` here?
A: 5 of 6

Q: What about the survivor count (dose: 100.0 mg/kg/injection, schedule: Q04DX003 (ip), vehicle: saline with Tween-80) of the same compound?
A: 6 of 6

Q: Which T/C (dose: 100.0 mg/kg/injection, schedule: Q01DX001 (ip), vehicle: saline with Tween-80) does the source give for `C=C1C(=O)OC2/C=C(\C)CC(O)/C=C(\C)CC(O)C12` (centres undefined) here?
A: 125 % of control

Q: And the T/C (dose: 200.0 mg/kg/injection, schedule: Q01DX001 (ip), vehicle: saline with Tween-80)?
A: 131 % of control [5 of 6 alive]

Q: And the survivor count (dose: 400.0 mg/kg/injection, schedule: Q01DX001 (ip), vehicle: saline with Tween-80)?
A: 1 of 6

Q: Which survivor count (dose: 400.0 mg/kg/injection, schedule: Q04DX003 (ip), vehicle: saline with Tween-80) does the source give for `CN(C)c1ccc(C(=O)NN)cc1` here?
A: 4 of 6

Q: `O=C(Nc1ccc2ncccc2c1)Nc1ccc2ncccc2c1` was tested. Which survivor count [1] did it give?
A: 6 of 6

Q: With `Cc1ccc2c(C)c3c(ccc4ccccc43)c[n+]2c1` as the compound, how does the T/C (dose: 5.0 mg/kg/injection, schedule: Q01DX009 (ip), vehicle: Klucel (hydroxypropylcellulose) (HPC)) read?
A: 140 % of control

Q: And the T/C (dose: 5.0 mg/kg/injection, schedule: Q01DX009 (ip), vehicle: saline)?
A: 130 % of control

Q: What about the survivor count (dose: 10.0 mg/kg/injection, schedule: Q01DX009 (ip), vehicle: Klucel (hydroxypropylcellulose) (HPC)) of the same compound?
A: 5 of 6

Q: And the survivor count (dose: 20.0 mg/kg/injection, schedule: Q01DX009 (ip), vehicle: Klucel (hydroxypropylcellulose) (HPC))?
A: 1 of 6

Q: For `CC1CCC2N(C1)CC1C3(O)CC45OC6(O)C(O)CCC4(C)C6CCC5C3(O)CC(O)C1(O)C2(C)O` (centres undefined), which survivor count (dose: 15.0 mg/kg/injection, schedule: Q01DX010 (ip), vehicle: carboxymethylcellulose (CMC)) is on record?
A: 0 of 6

Q: What about the survivor count (dose: 30.0 mg/kg/injection, schedule: Q01DX010 (ip), vehicle: carboxymethylcellulose (CMC)) of the same compound?
A: 0 of 6

Q: And the survivor count (dose: 60.0 mg/kg/injection, schedule: Q01DX010 (ip), vehicle: carboxymethylcellulose (CMC))?
A: 0 of 6

Q: How did the survivor count [2] turn out when `CCCCNC1(C#N)CCN(Cc2ccccc2)CC1` was run?
A: 5 of 6

Q: What about the survivor count (dose: 50.0 mg/kg/injection, schedule: Q04DX003 (ip), vehicle: Klucel (hydroxypropylcellulose) (HPC)) of the same compound?
A: 6 of 6

Q: What about the survivor count (dose: 100.0 mg/kg/injection, schedule: Q04DX003 (ip), vehicle: Klucel (hydroxypropylcellulose) (HPC)) of the same compound?
A: 0 of 6

Q: Which survivor count (dose: 100.0 mg/kg/injection, schedule: Q01DX009 (ip), vehicle: saline sonified) does the source give for `Nc1nc(-c2ccccc2)ns1` here?
A: 2 of 6

Q: For `NC(=S)N/N=C/c1ccc(N)cn1`, which T/C (dose: 3.13 mg/kg/injection, schedule: Q01DX009 (ip), vehicle: saline with Tween-80) is on record?
A: 148 % of control [5 of 6 alive]

Q: What about the survivor count (dose: 25.0 mg/kg/injection, schedule: Q01DX009 (ip), vehicle: saline with Tween-80) of the same compound?
A: 4 of 6 and 6 of 6

Q: And the survivor count (dose: 50.0 mg/kg/injection, schedule: Q01DX009 (ip), vehicle: saline with Tween-80)?
A: 0 of 6

Q: `O=C1C(=C(C(F)(F)F)C(F)(F)F)CCc2ccc([N+](=O)[O-])cc21` was tested. Which T/C (dose: 200.0 mg/kg/injection, schedule: Q04DX003 (ip), vehicle: saline with Tween-80) did it give?
A: 130 % of control

Q: What does the source list for `O=CN(O)CC(=O)O.[Ni]`?
A: survivor count (dose: 4.6 mg/kg/injection, schedule: Q01DX001 (ip), vehicle: saline): 6 of 6; survivor count (dose: 12.5 mg/kg/injection, schedule: Q01DX009 (ip), vehicle: saline): 4 of 6; survivor count (dose: 13.0 mg/kg/injection, schedule: Q04DX003 (ip), vehicle: saline): 3 of 6; T/C [3]: 127 % of control; survivor count [3]: 3 of 6; survivor count (dose: 30.0 mg/kg/injection, schedule: Q04DX003 (ip), vehicle: saline): 0 of 6; survivor count (dose: 45.0 mg/kg/injection, schedule: Q01DX001 (ip), vehicle: saline): 1 of 6; survivor count (dose: 70.0 mg/kg/injection, schedule: Q01DX001 (ip), vehicle: saline): 0 of 6; survivor count (dose: 105.0 mg/kg/injection, schedule: Q01DX001 (ip), vehicle: saline): 0 of 6

Q: For `Cc1ccc(S(=O)(=O)N(CCC(=N)N)C(C)C)cc1`, which survivor count (dose: 100.0 mg/kg/injection, schedule: Q04DX003 (ip), vehicle: saline) is on record?
A: 1 of 6

Q: For `Cc1cc(C)n(CO)n1`, which T/C [1] is on record?
A: 140 % of control

Q: What about the survivor count (dose: 400.0 mg/kg/injection, schedule: Q01DX009 (ip), vehicle: Klucel (hydroxypropylcellulose) (HPC)) of the same compound?
A: 6 of 6

Q: And the survivor count [4]?
A: 4 of 6

Q: For `CC(C)=C=CCN(C)Cc1ccccc1`, which survivor count (dose: 200.0 mg/kg/injection, schedule: Q01DX009 (ip), vehicle: saline) is on record?
A: 0 of 6

Q: With `CCCN(/C=C/C=C/C=[N+](CCC)CCC)CCC` as the compound, how does the T/C (dose: 0.1 mg/kg/injection, schedule: Q01DX009 (ip), vehicle: saline) read?
A: 135 % of control

Q: And the T/C (dose: 0.2 mg/kg/injection, schedule: Q01DX009 (ip), vehicle: saline)?
A: 132 and 143 % of control

Q: What about the T/C (dose: 0.4 mg/kg/injection, schedule: Q01DX009 (ip), vehicle: saline) of the same compound?
A: 145 % of control

Q: For `C=C(NC(C)=O)C(=O)O`, which survivor count (dose: 200.0 mg/kg/injection, schedule: Q04DX003 (ip), vehicle: Klucel (hydroxypropylcellulose) (HPC)) is on record?
A: 6 of 6

Q: What about the survivor count [4] of the same compound?
A: 6 of 6

Q: With `O=C1OCC2CC3c4ccccc4C12c1ccccc13` (centres undefined) as the compound, how does the T/C (dose: 100.0 mg/kg/injection, schedule: Q01DX001 (ip), vehicle: Klucel (hydroxypropylcellulose) (HPC)) read?
A: 135 % of control

Q: How did the T/C (dose: 4.0 mg/kg/injection, schedule: Q01DX010 (ip), vehicle: saline) turn out when `C=CC(CN1CC1)OC(C)=O` (centres undefined) was run?
A: 125 % of control

Q: What about the T/C (dose: 8.0 mg/kg/injection, schedule: Q01DX010 (ip), vehicle: saline) of the same compound?
A: 129 % of control

Q: What about the survivor count (dose: 16.0 mg/kg/injection, schedule: Q01DX010 (ip), vehicle: saline) of the same compound?
A: 4 of 6

Q: What about the survivor count (dose: 32.0 mg/kg/injection, schedule: Q01DX010 (ip), vehicle: saline) of the same compound?
A: 3 of 6

Q: For `COc1cc2cc3c4cc5c(cc4cc[n+]3c(C)c2cc1OC)OCO5` (tested in a mixture with another compound), which T/C (dose: 2.2 mg/kg/injection, schedule: Q04DX003 (ip), vehicle: saline) is on record?
A: 126 % of control

Q: What about the T/C (dose: 3.3 mg/kg/injection, schedule: Q04DX003 (ip), vehicle: saline) of the same compound?
A: 129 % of control

Q: What about the T/C (dose: 5.0 mg/kg/injection, schedule: Q04DX003 (ip), vehicle: saline) of the same compound?
A: 147 % of control

Q: What about the T/C (dose: 11.0 mg/kg/injection, schedule: Q04DX003 (ip), vehicle: saline) of the same compound?
A: 136 % of control

Q: And the T/C (dose: 37.5 mg/kg/injection, schedule: Q04DX003 (ip), vehicle: saline)?
A: 145 % of control

Q: And the T/C (dose: 150.0 mg/kg/injection, schedule: Q04DX003 (ip), vehicle: saline)?
A: 127 % of control

Q: Which results are given for `CCOCCN1CCN(CCCN2c3ccccc3Sc3ccc(C(F)(F)F)cc32)CC1`?
A: T/C (dose: 12.5 mg/kg/injection, schedule: Q04DX003 (ip), vehicle: saline): 138 % of control [5 of 6 alive]; survivor count (dose: 25.0 mg/kg/injection, schedule: Q04DX003 (ip), vehicle: saline): 5 of 6; survivor count (dose: 50.0 mg/kg/injection, schedule: Q04DX003 (ip), vehicle: saline): 4 of 6; survivor count (dose: 50.0 mg/kg/injection, schedule: Q04DX003 (ip), vehicle: water): 4 of 7; survivor count (dose: 100.0 mg/kg/injection, schedule: Q04DX003 (ip), vehicle: water): 0 of 7; survivor count (dose: 200.0 mg/kg/injection, schedule: Q04DX003 (ip), vehicle: water): 0 of 7; survivor count (dose: 400.0 mg/kg/injection, schedule: Q04DX003 (ip), vehicle: water): 0 of 7

Q: How did the survivor count (dose: 25.0 mg/kg/injection, schedule: Q01DX009 (ip), vehicle: saline) turn out when `Cn1c(=O)c2[nH]c(CCCc3nc4c([nH]3)c(=O)n(C)c(=O)n4C)nc2n(C)c1=O` was run?
A: 6 of 6

Q: And the survivor count (dose: 50.0 mg/kg/injection, schedule: Q01DX009 (ip), vehicle: saline)?
A: 1 of 6

Q: And the survivor count (dose: 200.0 mg/kg/injection, schedule: Q04DX003 (ip), vehicle: saline)?
A: 3 of 6

Q: With `Fc1ccccc1C1=NCC(=S)N(CC(F)(F)F)c2ccc(Cl)cc21` as the compound, how does the survivor count (dose: 200.0 mg/kg/injection, schedule: Q01DX009 (ip), vehicle: saline with Tween-80) read?
A: 3 of 6

Q: For `O=[N+]([O-])c1ccc(-[n+]2nc(-c3ccccc3)nn2-c2ccc(I)cc2)cc1`, which survivor count [2] is on record?
A: 6 of 6
